Measured values as given in the supplement of paper PMC12889115.
Some of the results follow. Values are raw readings; no control value is given beside them.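 Primary screen: polymyxin B was added at a level permeabilizing Salmonella outer membranes while sparing inner membranes. DMSO wells, both with and without polymyxin B, established maximum growth. Plate-to-plate variation meant each plate was ranked on its own, and the lowest-OD600 compounds were selected as hits.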

System: Salmonella enterica serovar Typhimurium SL1344
Test: bacterial growth OD600 after 18 h with compound and polymyxin B; higher = more bacterial growth (less inhibition)
Conditions: 50 µM, Mueller-Hinton broth

Row | Compound | bacterial growth OD600 (polymyxin B 0.75 µg/mL) | bacterial growth OD600 (polymyxin B 1 µg/mL)
1 | Cc1cccc(C(=O)N2CCC(C(Cc3ccccc3)N(C)C(=O)c3ccsc3)CC2)c1C (configuration not stated) | 0.004 | 
2 | COCCC(=O)N1CCCC(N2CCN(c3cccc(C(F)(F)F)c3)CC2)C1 (configuration not stated) |  | 0.89
3 | COC(=O)C1CCCCN1C(=O)c1c(OC)cc(=O)n2c1CCN(C/C=C/c1ccco1)CC2 (configuration not stated) | 0.883 | 
4 | Cc1nnsc1C(=O)N1CCCC(CCc2ccccc2)C1 (configuration not stated) | 0.565 | 
5 | CN(Cc1ccccc1Cl)C(=O)c1coc(COc2ccccc2)n1 | 0.202 | 
6 | Cc1nn(C)cc1CNC(=O)c1cc(COc2ccc3c(c2)OCO3)[nH]n1 |  | 0.868
7 | COCCCN1C(=O)CC(CC(=O)N2CCC(c3ccccc3F)C2)(c2ccccc2OC)C1=O (configuration not stated) | 0.006 | 
8 | Cc1cccc(CNC(=O)CC(c2cccc(O)c2)c2ccccc2Cl)n1 (configuration not stated) |  | 0.871
9 | Cc1ccc2c(c1)CN(Cc1c(C)nc3sccn13)CC(c1ccsc1)O2 (configuration not stated) | 0.099 | 
10 | CCOC(=O)CCNC(=O)N1C[C@H]2OC(=O)N(CCc3ccccn3)[C@H]2C1 |  | 0.924
11 | COc1cccc(C(=O)N2CCC(C(Cc3ccccc3)N(C)C(=O)c3cccs3)CC2)c1OC (configuration not stated) | 0.698 | 
12 | CCO[C@H]1[C@H](NC(=O)c2ccco2)c2ccccc2C12CCN(Cc1c(C)nn(C(C)C)c1C)CC2 | 0.826 | 
13 | Cc1nonc1C(=O)NC1CC(C)(C)Cc2nc(C(C)(C)C)ncc21 (configuration not stated) |  | 0.978
14 | Cc1cc(Cl)c2oc(C(=O)N3CCCCC3CCN3CCCC3=O)c(C)c2c1 (configuration not stated) |  | 0.004
15 | Cc1ccccc1CC(C1CCN(C(=O)CSc2ccccc2)CC1)N(C)C(=O)Cn1cccn1 (configuration not stated) | 0.665 | 
16 | COc1ccc(CC2=NOC(CNC(=O)c3csc(Cc4ccccc4)n3)C2)cc1 (configuration not stated) | 0.889 | 

Compounds listed so far that have fluorine (2):
Row | Compound | bacterial growth OD600 (polymyxin B 0.75 µg/mL) | bacterial growth OD600 (polymyxin B 1 µg/mL)
2 | COCCC(=O)N1CCCC(N2CCN(c3cccc(C(F)(F)F)c3)CC2)C1 (configuration not stated) |  | 0.89
7 | COCCCN1C(=O)CC(CC(=O)N2CCC(c3ccccc3F)C2)(c2ccccc2OC)C1=O (configuration not stated) | 0.006 | 

Later entries

Row | Compound | bacterial growth OD600 (polymyxin B 0.75 µg/mL) | bacterial growth OD600 (polymyxin B 1 µg/mL)
17 | CCN1CCN(C2(C(=O)NC(C)Cc3ccccn3)Cc3ccccc3C2)CC1 (configuration not stated) | 0.831 | 
18 | Cc1nc(C(C)NC(=O)c2cc(COc3cccc4cnccc34)on2)cs1 (configuration not stated) |  | 0.977
19 | COc1ccc(C(=O)N2CCCC(Nc3ccc(C(C)C)cc3)C2)cc1F (configuration not stated) |  | 0.006
20 | O=S(=O)(Cc1ccccc1)NCc1cccnc1Oc1ccccc1F |  | 0.741
21 | CCC1CN(Cc2ccc(O)c(OC)c2)Cc2ccc(Cl)cc2O1 (configuration not stated) | 0.633 | 
22 | CN(C(=O)C1CC1)C(Cc1ccc(F)cc1F)C1CCN(C(=O)c2ccc(F)cc2Cl)CC1 (configuration not stated) | 0.653 | 
23 | O=C(c1ccc(NC2CCOC2)nc1)N1CCC(Cn2cccn2)CC1 (configuration not stated) |  | 0.954
24 | O=C1CC(CNc2ccc(-c3nc(C4CC4)no3)cn2)CN1C1CCCC1 (configuration not stated) | 0.769 | 
25 | OCCC1CN(C2CCCC2)CCN1Cc1ccccc1F (configuration not stated) |  | 0.886
26 | CC(C)Cc1cn[nH]c1C1CCCN(C(=O)Cc2ccc3c(c2)OCO3)C1 (configuration not stated) | 0.811 | 
27 | CN1CCCC2(CCN(C(=O)Cc3cccc4ccccc34)C2)C1=O (configuration not stated) |  | 0.919
28 | Cc1cc(C)cc(-n2ncc3c2CCCC3NC(=O)Cc2cccnc2)c1 (configuration not stated) |  | 0.89
29 | CN(Cc1cn(Cc2ccccc2)nc1-c1cc2ccccc2o1)CC1COCCO1 (configuration not stated) |  | 0.76
30 | CC(C)c1ccc(NC2CCCN(C(=O)C[n+]3cc([O-])on3)C2)cc1 (configuration not stated) |  | 0.908
31 | COc1ccc(NC2CCCN(C(=O)c3ccccc3N3CCOCC3)C2)cc1OC (configuration not stated) |  | 0.881
32 | CCOC(=O)N1CCN(Cc2ccc3c(c2)CN(C(=O)C2CC(=O)N(CCOC)C2)CCO3)CC1 (configuration not stated) | 0.919 | 
